Test results reported in PubChem BioAssay AID1307 (SRMLSC, 2008).
Screen size: about 1,200 compounds; fewer than 10 were called active.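 How the source made its calls: active means inhibition reaching a set limit at one or more tested concentrations; inactive means inhibition under that limit at every dose.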 The list shows a part of the results. Entries with a potency or affinity are not part of this list.

Assay: RAM pathway signaling blockade in S. cerevisiae – dose response (AID 1307);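 further: 0% = DMSO vehicle wells and 100% = 10 µM 1-NA-PP1 control; higher inhibition means more yeast growth since RAM block rescues cells from 5-FOA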
Details: S. cerevisiae RAM network URA3 reporter, 5-FOA growth OD615, stronger effect = higher value, yeast express analog-sensitive mutant Cbk1 kinase; at 100 µM unless noted

Max inhibition, inactive:
CCCCCCNC(=O)c1cc(-c2ccco2)nc2ccccc12 2.66%
CCOC(=O)c1cccc(NC(=O)CSc2nnc(COc3ccccc3C)o2)c1 2.04% [at 50 µM]
Cn1nc(C(F)(F)F)c(/C=N/OC(=O)c2ccccc2Cl)c1SCc1ccccc1Cl 0.46% [at 25 µM]
Cc1ccc(N2CCN(C(=O)c3cc(C(=O)c4ccccc4C)c[nH]3)CC2)c(C)c1 2.01%
N#C/C(=C\Nc1ccccc1SC(F)(F)F)c1nc(-c2ccccc2)cs1 4.49% [at 3.125 µM]
Cc1cccc(OCCC(=O)Nc2ccc(C)c(S(=O)(=O)N3CCCCC3)c2)c1 4.92%
CNS(=O)(=O)c1cccc(C(=O)OCc2csc(-c3ccccc3)n2)c1 3.04%
CCN(CC)S(=O)(=O)c1cccc(C(=O)c2c(C)cc3ccccn23)c1 1.52%
CCCCNC(=S)N(C)/N=C/c1ccc(OCc2ccc(C(=O)OC)cc2)c(OC)c1 9.25%
COc1cccc(/C=C(/C(=O)OCC(=O)NC2CCCCCCC2)c2ccccc2)c1 4.43% [at 25 µM]
COc1ccccc1-n1c(COc2ccccc2-c2ccccc2)nnc1SCC(=O)c1c(N)n(C)c(=O)n(C)c1=O 11.9%
CSc1nc2ccccc2cc1/C=C(\C#N)c1cccc(C)c1 6.35% [at 50 µM]
O=C(OCc1nnc(-c2ccccc2)o1)C12CC3CC(CC(Br)(C3)C1)C2 4.38% [at 1.563 µM]
NS(=O)(=O)c1ccc(NC(=S)NC(=O)c2cccc(Br)c2)cc1 1.28% [at 25 µM]
COc1ccccc1C(NC(=O)C1CCCCC1)c1c(O)ccc2ccccc12 (configuration not stated) 5.27%
Nc1ncnc(Sc2ccccc2)c1[N+](=O)[O-] 8.94%
COc1ccc(C2=NN(C(C#N)c3ccc(OC)cc3)C(c3ccccc3)C2)cc1 (configuration not stated) 6.79%
CCN(CC)C(=O)CSc1nc2cc3c(cc2c(=O)n1CCCCCC(=O)NCc1ccc(OC)cc1)OCO3 4.6%
CCCS(=O)(=O)c1c(S(=O)(=O)CCC)c2c(N)cccn2c1C(=O)c1ccc(Br)cc1 6.47%
Cc1ccc(C2=NN(Cc3nnc(-c4ccccc4)o3)C(=O)SC2)cc1 3.29%
CCCCN(CC(=O)NCc1ccc(Cl)cc1)S(=O)(=O)c1ccc2c(c1)OCCO2 2.29% [at 12.5 µM]
COc1cc(-c2cc(C(=O)Nc3ccc(S(=O)(=O)NCc4ccco4)cc3)c3ccccc3n2)cc(OC)c1OC 11.7%
CC(C)c1ccc(CNc2cc(N3CCCC3)ccc2[N+](=O)[O-])cc1 5.27%
COC(=O)c1c(NC(=O)c2ccc(C)cc2)sc(Cc2ccccc2)c1C 3.81%
C=CCN(CC=C)S(=O)(=O)c1ccc(NC(=S)NC(=O)c2ccc(-c3ccccc3)cc2)cc1 3.65%
CN(C)c1ccc(N=Nc2ccccc2C(=O)OCC(=O)NCC2CCCCC2)cc1 4.33% [at 50 µM]
CCCCN(C(=O)c1cccc2c(=O)c(C)c(-c3ccccc3)oc12)c1ccccc1 2.21% [at 25 µM]
COc1ccc(-c2nc(-c3ccc(O)cc3O)cs2)cc1OC 5.02% [at 3.125 µM]
Cc1ccc(C(=O)CC(=O)c2ccc(C(C)(C)C)cc2)cc1 10.3%
COC(=O)c1cc(=O)n(CCc2ccccc2)c(=Nc2ccc(F)cc2)s1 4.08% [at 50 µM]
CCOC(=O)c1sc2nc(CSCC(=O)OCc3ccc(C(=O)OC)o3)[nH]c(=O)c2c1C 3.02% [at 25 µM]
COc1cccc(OCCNc2cc(N3CCOCC3)ccc2[N+](=O)[O-])c1 3.13% [at 0.782 µM]
CCC(=O)N1CCc2cc(S(=O)(=O)NC(Cc3ccccc3)C(=O)NC3CCCCC3)ccc21 (configuration not stated) 3.34% [at 1.563 µM]
COc1ccc(NS(=O)(=O)c2ccc3oc(SCc4ccc(F)cc4)nc3c2)cc1 3% [at 1.563 µM]
CCOC(=O)c1cnn(-c2ccccc2)c1-n1cccc1C(=O)C(=O)Nc1ccccc1C(F)(F)F 4.62%
CCCN1C(=O)/C(=C/c2ccc(C)s2)SC1=Nc1ccc(OC)cc1 7.08% [at 25 µM]
CCOC(=O)c1cnc(SC)nc1Oc1cccc(NC(=O)c2ccc(C)cc2)c1 5.83% [at 50 µM]
COC(=O)CCSCC(=O)N1N=C(c2ccc(Br)cc2)CC1c1cccc(OC)c1OC (configuration not stated) 1.41%
Cc1cccc(NC(=O)/C(C#N)=C/c2ccc(Sc3ccccc3)o2)c1C 10.5%
Cc1ccc(NC(=O)c2ccc(F)cc2)cc1S(=O)(=O)N1CCCCCC1 3.05% [at 6.25 µM]
O=C(O)c1ccc(Cl)c(S(=O)(=O)Nc2cccc(C(=O)Nc3cccc(C(F)(F)F)c3)c2)c1 4.27% [at 1.563 µM]
O=[N+]([O-])c1ccc(-c2nnc(-c3ccccc3)c(NCCCO)n2)cc1 3.03% [at 50 µM]
CCN(Cc1ccccc1)S(=O)(=O)c1ccc(S(=O)(=O)N(Cc2ccccn2)Cc2ccco2)cc1 13.1%
CCOc1cc(/C=N/N=C2/NC(=O)C(CC(=O)O)S2)ccc1OS(=O)(=O)c1ccc(C)cc1 (configuration not stated) 2.55% [at 3.125 µM]
Cc1nn(Cc2c(Cl)cccc2Cl)c(C)c1NC(=O)Cn1nc([N+](=O)[O-])c(Cl)c1C 2.95% [at 0.391 µM]
COc1ccc(CCNC(=O)c2ccc(-c3ccc([N+](=O)[O-])cc3)o2)cc1OC 5.97%
CC(=O)C(N=Nc1ccccc1)(Sc1nnc(-c2ccccc2)n1-c1ccccc1)C(C)=O 3.28%
CC1=C(C(=O)OCc2ccccc2)C(c2ccc(C(C)(C)C)cc2)NC(=O)N1CCCCCC(=O)O (configuration not stated) 5.18%
COc1cc(NC(=O)COC(=O)Cc2ccc(-c3ccccc3)cc2)cc(OC)c1 2.81%
CCOC(=O)c1c(C)nc2c(c1C)c(=O)oc1ccccc12 2.9% [at 12.5 µM]
O=c1c(/C=N/O)coc2ccc3ccccc3c12 1.72% [at 12.5 µM]
Cn1cnnc1SC1c2cccc3cccc(c23)C1NS(=O)(=O)c1ccc(Cl)cc1 (configuration not stated) 6.71%
CCCN(N=Nc1cccc([N+](=O)[O-])c1)c1cccc([N+](=O)[O-])c1 1.92% [at 3.125 µM]
O=C(/C=C/c1cccc(Br)c1)N1CCN(c2cccc(C(F)(F)F)c2)CC1 3.48% [at 50 µM]
c1ccc(-c2csc(N3CCc4ccccc4C3)n2)cc1 2.64% [at 0.196 µM]
CCOCCOC(=O)C(C)Oc1ccc(Oc2nc(Cl)ccc2Cl)cc1 (configuration not stated) 2.21% [at 25 µM]
O=C(NCc1ccc2c(c1)OCO2)c1cc(-c2ccccn2)nc2ccccc12 4.19% [at 3.125 µM]
COc1cccc(CNC(=O)CN2C(=O)CC(c3ccccc3)=Nc3ccccc32)c1 1.81% [at 0.782 µM]
Cc1sc2nc(SCc3ccccc3)n(Cc3ccco3)c(=O)c2c1C 2.81%
COc1ccc(/C=C/C(=O)c2c(O)c(OC)c3occc3c2OC)cc1 11.9% [at 50 µM]
CS(=O)(=O)N(Cc1ccc(C(=O)NCCSCc2ccco2)cc1)c1ccccc1 3.96% [at 50 µM]
COc1ccc2c(c1)C(C)CC(C)(C)N2C(=O)CSc1nc2ccccc2s1 (configuration not stated) 4%
C=CCSC1=N/C(=C/c2ccsc2)C(=O)N1c1ccccc1 2.72%
C=CCn1c(=O)c(C(=O)Nc2ccccc2C(=O)OCC)c(O)c2ccccc21 4.45% [at 50 µM]
Cc1ccc(S(=O)(=O)N2CCC(=O)N(C(COCc3ccc(Cl)c(Cl)c3)Cc3ccccc3)CC2)cc1 (configuration not stated) 5.53%
O=C(COC(=O)/C=C/c1nc2ccccc2s1)Nc1ccccc1Oc1ccccc1 4.29% [at 25 µM]
CCCCN(CCCC)C1=Nc2ccccc2N/C1=C(/C#N)C(=O)OCC 3.63%
O=S(=O)(NCCc1csc(-c2ccc(C(F)(F)F)cc2)n1)c1ccc2c(c1)OCCO2 3.1% [at 0.196 µM]
COc1ccc(CCNC(=O)/C(C#N)=C/c2cccc(OCc3ccccc3)c2)cc1OC 2.94%
O=C(CN(C(=O)CSc1nnc(COc2ccccc2)o1)c1ccc(F)cc1)NC1CCCC1 2.82%
CCOc1ccc(N(C)S(=O)(=O)c2ccc3[nH]cc(C(=O)NCCOC)c(=O)c3c2)cc1 12.1%
Clc1ccc(-c2csc(N3CCC(c4ccccc4)C3)n2)cc1 (configuration not stated) 2.95%
CCOC(=O)c1c(NC(=O)CSc2nnnn2-c2ccc(OC)cc2)sc(C)c1C 2.24%
N#Cc1c(SCc2ccccc2)nc(N2CCOCC2)c2c1CCCC2 4.87% [at 50 µM]
CCOc1ccccc1NC(=O)C(OC(=O)c1ccc(CC)cc1)c1ccccc1 (configuration not stated) 4.01% [at 50 µM]
O=C(COC(=O)c1ccccc1-c1nc2ccccc2s1)Nc1ccccc1C(F)(F)F 2.36%
CCN(CC)S(=O)(=O)c1ccc(OC)c(NC(=O)CSc2cc(C)ccc2C)c1 4.46% [at 6.25 µM]

In the list so far, three contain an NH in an aromatic ring.
Max inhibition, inactive:
Cc1ccc(N2CCN(C(=O)c3cc(C(=O)c4ccccc4C)c[nH]3)CC2)c(C)c1 2.01%
CCOC(=O)c1sc2nc(CSCC(=O)OCc3ccc(C(=O)OC)o3)[nH]c(=O)c2c1C 3.02% [at 25 µM]
CCOc1ccc(N(C)S(=O)(=O)c2ccc3[nH]cc(C(=O)NCCOC)c(=O)c3c2)cc1 12.1%
